From PubChem BioAssay AID624297 (National Center for Advancing Translational Sciences (NCATS), 2012)
Values joined by “and” are separate entries in the source; they are usually repeats but may differ in a detail not shown here. Identical values can stand only once. Screen size: about 340,000 compounds; about 6,200 (1.8%) were called active. Inconclusive means that the source gave no clear call. Such entries were picked first, then a sample of the others. Calls follow the shape of the dose curve; as a rule, active = well fitted activation curve with a large enough effect; inconclusive = small, poorly fitted or top-dose-only effect; inactive = no such curve, though single readings can be large or run the other way. Potencies beside an inconclusive call are fits to weak or partial responses and may not hold up.

assay: A quantitative high throughput screen for small molecules that induce DNA re-replication in SW480 colon adenocarcinoma cells.; also: nearly all actives have a fitted effect of over 55% in size; as to re-replication activation: % of control where 0% means no effect; settings: Hoechst DNA content imaging, 48 h; re-replication activation: at 46.1 µM (top of the series)
Method in brief: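 Hoechst fluorescence of nuclei (405 nm excitation, 500-530 nm emission) measured by plate-scanning imager after 48 hr compound exposure at 37 C; re-replication scored as increased number of nuclei with elevated intensity.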
Potency is read from the fitted curve at half-maximal effect.

SMILES	re-replication activation	Potency
COc1ccc(S(=O)(=O)NC(CC(=O)N2CCC3(CC2)OCCO3)C(C)C)cc1 (stereo not drawn)	inactive: -2.39%	
CCCCCn1c(=O)c(C(=O)NCc2ccncc2)c(O)c2ccccc21		inconclusive: 29.1 µM [activator, single point]
C[N+]1(C)CCc2cc3c(cc2[C@H]1[C@@H]1OC(=O)c2c1ccc1c2OCO1)OCO3		inconclusive: 231 nM [activator, single point] and inconclusive: 13 µM [activator, single point]
CC[C@@H](CO)C1CC2NC3CC4(c5ccccc5N(C)[C@@H]24)C(O)C31 (stereo partly drawn)		inconclusive: 0.731 µM [activator, partial curve, poor fit]
CCCCCCC(=O)O[C@H]1CC[C@H]2[C@@H]3CCC4CC(=O)C=C(C)[C@]4(C)[C@H]3CC[C@]12C (stereo partly drawn)		inconclusive: 33.5 µM [activator, partial curve, poor fit]
CN(C)CCN(CC1CCCN(Cc2ccccc2F)C1)C(=O)Cc1ccccc1F (stereo not drawn)		inconclusive: 1.84 µM [activator, partial curve, poor fit]
CCOC(=O)C1CCN(/C=C2/C(=O)NC(=O)N(c3cccc(C)c3C)C2=O)CC1	inactive: 4.1%	
CCN(CC)c1ccccc1		inconclusive: 0.231 µM [activator, single point]
CN(C)c1ccc(/C=C/[N+](=O)[O-])cc1		inconclusive: 29.1 µM [activator, single point]
COc1cc2c(cc1OC)[C@@H]1C(=O)c3ccc4c(c3O[C@@H]1CO2)C[C@H](C(C)C)O4		inconclusive: 29.1 µM [activator, single point]
CC(CC(C)(C)N1CC1)=NNC(=O)Nc1cccc2ccccc12		inconclusive: 29.1 µM [activator, partial curve, poor fit]
CCCCOc1nc2ccccc2c(=O)n1-c1ccccc1	inactive: 0.796%	
NC(N)=Nc1ccc2[nH]c3c(c2c1)C[C@@]1(O)[C@H]2Cc4ccc(O)c5c4[C@@]1(CCN2CC1CC1)[C@H]3O5		inconclusive: 0.58 µM [activator, partial curve, poor fit]
S=P(NC1CCCCC1)(N1CC1)N1CC1		inconclusive: 23.1 µM [activator, partial curve, poor fit]
CCn1cc(C=C2C(=O)NC(=O)NC2=O)c2ccccc21		inconclusive: 14.6 µM [activator, partial curve, poor fit]
CCOC(=O)C1(CCc2ccccc2)CCN(C2CCSCC2)CC1		inconclusive: 29.1 µM [activator, partial curve, poor fit]
COc1ccc(-n2c(-c3ccccc3)nc3ccccc3c2=O)cc1		inconclusive: 18.4 µM [activator, single point]
COc1cc(C2c3cc4c(c(O)c3CC3COC(=O)C32)OCO4)cc(OC)c1OC (stereo not drawn)		active: 0.0517 µM
C/C(=C/C=C/[C@@H](C)C(=O)O)[C@H]1CN[C@H](C(=O)O)[C@H]1CC(=O)O		inconclusive: 23.1 µM [activator, single point]

SMILES	re-replication activation	Potency
COC(=O)C1=C(c2ccc(Cl)c(C(F)(F)F)c2)C[C@@H]2CC[C@H]1N2C(=O)NCCOc1ccccc1Cl	inactive: -4.27%	
COC(=O)C1=C(c2ccc(F)cc2OCc2ccccc2)C[C@@H]2CC[C@H]1N2C(=O)NCCN1CCOCC1		inconclusive: 29.1 µM [activator, single point]
NC(Cc1ccc(O)cc1)C(=O)NN=Cc1ccc(N(CCCl)CCCl)cc1 (stereo not drawn)		inconclusive: 29.1 µM [activator, single point]
CCCCOCCCn1c(N)c(C(=O)OC(C)COC)c2nc3ccccc3nc21 (stereo not drawn)	inactive: -0.291%	
C[N+]12CCC(CC1)[C@@H](OC(=O)C(O)(c1ccccc1)c1ccccc1)C2	inactive: -4.58% [at 20.6 µM]	
Cc1ccc(NN=C2C(=O)OC(C)(C)OC2=O)c(C)c1		inconclusive: 0.0651 µM [activator, full curve, poor fit]
Cc1ccccc1NP(=O)(Oc1ccccc1F)Oc1ccccc1F	inactive: -4.22%	
COc1ccc(NP(=O)(Oc2ccccc2OC)Oc2ccccc2OC)cc1		inconclusive: 29.1 µM [activator, partial curve, poor fit]
COc1ccc2c(c1)C(NC(C)=O)CCc1cc(OC)c(OC)c(OC)c1-2 (stereo not drawn)		active: 0.058 µM
Cc1ccc(S(=O)(=O)Nc2ccc3ncccc3c2[N+](=O)[O-])cc1		inconclusive: 29.1 µM [activator, single point]
CCC(C(=O)O)C1CCC(C)C(C(C)C(O)C(C)C(=O)C(CC)C2OC3(C=CC(O)[C@@]4(CC[C@](C)(C5CC[C@@](O)(CC)C(C)O5)O4)O3)C(C)CC2C)O1 (stereo partly drawn)		inconclusive: 3.35 µM [activator, full curve, poor fit]
C=C(C)[C@@H]1CC[C@]2(C(=O)O)CC[C@]3(C)C(CCC4[C@@]5(C)CC[C@H](O)C(C)(C)C5CC[C@]43C)C12 (stereo partly drawn)		inconclusive: 20.6 µM [activator, partial curve, poor fit]
CCn1nc(-c2ccccc2)nc2c(=O)n(C)c(=O)nc1-2		inconclusive: 7.31 µM [activator, partial curve, poor fit]
CCOC(=O)C1(CCc2ccccc2)CCN(Cc2cccc3cnccc23)CC1		inconclusive: 29.1 µM [activator, single point]
O=C(CSc1ccccc1)Nc1ccc(C(=O)Nc2cccc(O)c2)cc1	inactive: -29.6%	
Cc1ccc(NP(=O)(Oc2ccccc2F)Oc2ccccc2F)cc1C		inconclusive: 16.4 µM [activator, single point]
CC(C)(C)c1cc(C=C(C#N)C#N)cc(C(C)(C)C)c1O	inactive: -44.7%	
COc1ccc(-[n+]2c(-c3ccccc3)cc(-c3ccccc3)cc2-c2ccccc2)cc1		inconclusive: 1.46 µM [activator, partial curve, poor fit]
